Data from publication PMC3407361.
These are yes or no findings as the source states them, for the method shown. Some results given as binding are weak or reduced against the parent protein; the word gives no strength.

Protein sequences, listed by entry. Tags and fused reporters are not part of them. Lines headed by an entry give the natural chain unless they say otherwise; changes in a name come on top. Residues count along the entry.
UniProt P08603, residues 19-1231: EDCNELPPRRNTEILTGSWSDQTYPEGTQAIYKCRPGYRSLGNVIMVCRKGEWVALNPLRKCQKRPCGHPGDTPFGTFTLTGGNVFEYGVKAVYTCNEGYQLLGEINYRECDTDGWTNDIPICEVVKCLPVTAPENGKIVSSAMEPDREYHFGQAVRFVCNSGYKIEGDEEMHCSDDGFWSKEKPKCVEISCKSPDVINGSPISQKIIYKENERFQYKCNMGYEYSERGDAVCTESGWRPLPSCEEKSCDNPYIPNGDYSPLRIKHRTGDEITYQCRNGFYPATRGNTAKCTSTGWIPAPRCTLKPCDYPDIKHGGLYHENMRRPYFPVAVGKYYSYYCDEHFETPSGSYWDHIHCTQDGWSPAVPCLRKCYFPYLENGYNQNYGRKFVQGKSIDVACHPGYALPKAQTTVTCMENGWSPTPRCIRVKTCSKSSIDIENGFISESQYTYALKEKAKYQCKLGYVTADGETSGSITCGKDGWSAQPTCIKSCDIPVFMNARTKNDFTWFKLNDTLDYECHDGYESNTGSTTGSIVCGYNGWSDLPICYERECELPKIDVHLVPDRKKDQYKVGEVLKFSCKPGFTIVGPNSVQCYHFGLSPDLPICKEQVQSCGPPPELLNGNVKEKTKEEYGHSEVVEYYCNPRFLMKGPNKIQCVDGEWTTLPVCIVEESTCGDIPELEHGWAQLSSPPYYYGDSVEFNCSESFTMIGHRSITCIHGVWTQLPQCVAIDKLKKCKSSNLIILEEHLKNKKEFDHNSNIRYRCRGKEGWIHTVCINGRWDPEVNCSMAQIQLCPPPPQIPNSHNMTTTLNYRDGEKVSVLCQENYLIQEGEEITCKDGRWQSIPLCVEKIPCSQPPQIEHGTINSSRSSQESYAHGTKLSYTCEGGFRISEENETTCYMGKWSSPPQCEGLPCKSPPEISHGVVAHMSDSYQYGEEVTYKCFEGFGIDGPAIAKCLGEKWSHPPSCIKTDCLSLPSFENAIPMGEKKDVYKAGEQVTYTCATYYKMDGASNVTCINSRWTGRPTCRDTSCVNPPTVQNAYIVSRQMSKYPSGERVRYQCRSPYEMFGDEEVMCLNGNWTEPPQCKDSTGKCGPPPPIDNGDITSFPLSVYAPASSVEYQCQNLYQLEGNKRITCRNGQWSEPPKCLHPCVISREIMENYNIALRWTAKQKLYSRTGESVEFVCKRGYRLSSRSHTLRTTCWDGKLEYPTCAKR
UniProt P01024: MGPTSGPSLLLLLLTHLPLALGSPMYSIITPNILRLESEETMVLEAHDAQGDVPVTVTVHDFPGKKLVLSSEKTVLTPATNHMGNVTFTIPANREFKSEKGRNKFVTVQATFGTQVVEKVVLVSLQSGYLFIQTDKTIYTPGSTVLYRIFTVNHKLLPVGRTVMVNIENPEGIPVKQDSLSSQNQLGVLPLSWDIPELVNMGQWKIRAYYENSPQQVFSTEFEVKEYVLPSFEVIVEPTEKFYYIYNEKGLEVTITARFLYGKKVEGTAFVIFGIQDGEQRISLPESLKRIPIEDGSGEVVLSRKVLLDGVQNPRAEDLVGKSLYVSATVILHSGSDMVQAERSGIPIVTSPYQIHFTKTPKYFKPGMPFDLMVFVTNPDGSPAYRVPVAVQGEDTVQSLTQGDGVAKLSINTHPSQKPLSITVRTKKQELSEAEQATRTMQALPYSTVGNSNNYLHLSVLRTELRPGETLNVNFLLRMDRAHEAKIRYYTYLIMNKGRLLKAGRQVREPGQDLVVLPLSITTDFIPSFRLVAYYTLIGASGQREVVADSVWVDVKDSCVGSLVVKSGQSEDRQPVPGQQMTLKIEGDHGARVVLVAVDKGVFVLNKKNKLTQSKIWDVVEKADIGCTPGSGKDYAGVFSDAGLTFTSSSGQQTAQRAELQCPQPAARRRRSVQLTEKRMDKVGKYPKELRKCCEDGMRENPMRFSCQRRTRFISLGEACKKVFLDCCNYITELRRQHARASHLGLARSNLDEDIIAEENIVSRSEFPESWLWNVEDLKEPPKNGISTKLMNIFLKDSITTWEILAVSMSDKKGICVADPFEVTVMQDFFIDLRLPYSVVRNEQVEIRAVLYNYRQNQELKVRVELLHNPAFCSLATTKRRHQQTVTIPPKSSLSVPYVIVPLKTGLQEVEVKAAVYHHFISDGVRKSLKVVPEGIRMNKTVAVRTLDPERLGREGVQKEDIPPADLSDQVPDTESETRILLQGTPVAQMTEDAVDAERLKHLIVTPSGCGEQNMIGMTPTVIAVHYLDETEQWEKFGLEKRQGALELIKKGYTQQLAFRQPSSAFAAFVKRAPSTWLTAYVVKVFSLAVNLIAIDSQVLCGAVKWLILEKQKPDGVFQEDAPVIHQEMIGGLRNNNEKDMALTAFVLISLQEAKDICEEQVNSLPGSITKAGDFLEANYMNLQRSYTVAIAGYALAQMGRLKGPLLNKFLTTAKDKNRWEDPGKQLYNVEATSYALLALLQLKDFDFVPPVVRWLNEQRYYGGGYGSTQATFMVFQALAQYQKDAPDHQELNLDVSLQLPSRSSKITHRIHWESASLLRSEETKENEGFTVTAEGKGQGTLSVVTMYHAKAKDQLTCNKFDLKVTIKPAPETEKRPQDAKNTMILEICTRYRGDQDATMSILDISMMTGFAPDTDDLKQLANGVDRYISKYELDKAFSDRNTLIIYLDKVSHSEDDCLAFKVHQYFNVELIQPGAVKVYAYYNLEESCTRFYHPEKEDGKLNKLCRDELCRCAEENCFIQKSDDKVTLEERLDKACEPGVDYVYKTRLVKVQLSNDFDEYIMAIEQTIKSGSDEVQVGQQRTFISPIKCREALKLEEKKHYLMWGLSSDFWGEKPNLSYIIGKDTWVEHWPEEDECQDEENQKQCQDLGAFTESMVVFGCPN

Target: complement factor H (UniProt P08603)
Experiment: ELISA; wells coated with 1 ug/mL purified CFH; medium samples with 1,000, 500, 250 or 125 ng/mL wild-type or mutant C3b; detected with HRP-conjugated goat antibodies against C3; arbitrary units; only the target purified

binding | Substance
binds | recombinant C3b carrying p.Arg161Trp (from UniProt P01024 23-667; P01024 749-1663)
binds | recombinant C3b carrying p.Lys65Gln (from UniProt P01024 23-667; P01024 749-1663)
binds | wild-type recombinant C3b (from UniProt P01024 23-667; P01024 749-1663)
